# From the supplement of paper PMC7580552
# Counter-ions that a name gives are not always drawn. The list shows a part of the results. Baselines shift from plate to plate; read single values as rough.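 A K-12 lab model strain is cultured statically in 96-well plates; biofilm is measured as the absorbance of crystal violet stain retained in the wells. Drugs counted as candidate specific biofilm blockers if they strongly reduced staining while slowing planktonic growth by under 70%.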
# Tested on: Escherichia coli W3110
# Test: biofilm formation (crystal violet staining) relative to untreated control; higher = more biofilm
# Settings: 10 µM; 20-24 h; 30 °C; TB
row,Compound,biofilm formation
1,Cc1cc(NC(=O)C2=C(O)c3ccccc3S(=O)(=O)N2C)no1 [Isoxicam],76%
2,Cc1cc(C(C)(C)CC(C)(C)C)ccc1OCCOCC[N+](C)(C)Cc1ccccc1 [Methyl benzethonium chloride],30%
3,CO[C@@]1(NC(=O)C2SC(=C(C(N)=O)C(=O)O)S2)C(=O)N2C(C(=O)O)=C(CSc3nnnn3C)CS[C@@H]21 (some centres not stated) [Cefotetan],0%
4,CN(C)CCCN1c2ccccc2CCc2ccc(Cl)cc21 [Clomipramine hydrochloride],61%
5,COC(=O)C1=C(C)NC(C)=C(C(=O)OC)C1c1ccccc1[N+](=O)[O-] [Nifedipine],69%
6,C[C@@H](c1ncncc1F)[C@](O)(Cn1cncn1)c1ccc(F)cc1F [Voriconazole],72%
7,O=C(O)Cc1ccccc1Nc1c(Cl)cccc1Cl [Diclofenac sodium],78%
8,CN1CCN(CCCN2c3ccccc3Sc3ccc(S(=O)(=O)N(C)C)cc32)CC1 [Thioproperazine dimesylate],68%
9,CC(=O)Oc1cc(C(F)(F)F)ccc1C(=O)O [Triflusal],70%
10,C[C@]12C=CC(=O)C=C1CC[C@@H]1[C@@H]2[C@@H](O)C[C@@]2(C)[C@H]1CC[C@]2(O)C(=O)CO [Prednisolone],50%
11,O=c1[nH]cc(F)c(=O)[nH]1 [5-fluorouracil],75%
12,CS(=O)(=O)c1ccc([C@@H](O)[C@@H](CO)NC(=O)C(Cl)Cl)cc1 [Thiamphenicol],70%
13,CC(C)Cc1ccc([C@H](C)C(=O)O)cc1 [S-(+)-ibuprofen],50%
14,NS(=O)(=O)c1cc2c(cc1Cl)N=C(CSCc1ccccc1)NS2(=O)=O [Benzthiazide],60%
15,O=C1C(CC[S+]([O-])c2ccccc2)C(=O)N(c2ccccc2)N1c1ccccc1 (configuration not stated) [Sulfinpyrazone],69%
16,CC(=O)O[C@]1(C(C)=O)CC[C@H]2[C@@H]3C=C(C)C4=CC(=O)CC[C@@H]4[C@H]3CC[C@@]21C [Nomegestrol acetate],81%
17,C[C@H](CCC(=O)O)[C@H]1CC[C@H]2[C@@H]3CC[C@@H]4C[C@H](O)CC[C@]4(C)[C@H]3CC[C@]12C [Lithocholic acid],77%
18,CC(=O)SCC(Cc1ccccc1)C(=O)NCC(=O)OCc1ccccc1 (configuration not stated) [Racecadotril],70%
19,COC(=O)C1=C(C)NC(C)=C(C(=O)OC(C)C)C1c1cccc2nonc12 (configuration not stated) [Isradipine],83%
20,O=C(O)CCCC[C@@H]1SC[C@@H]2NC(=O)N[C@@H]21 [Biotin],82%
21,COCC(=O)Nc1c(I)c(C(=O)NCC(O)CO)c(I)c(C(=O)N(C)CC(O)CO)c1I (configuration not stated) [Iopromide],82%
22,CC1COc2c(N3CCN(C)CC3)c(F)cc3c(=O)c(C(=O)O)cn1c23 (configuration not stated) [Ofloxacin],13%
23,Cn1cnc([N+](=O)[O-])c1Sc1ncnc2[nH]cnc12 [Azathioprine],52%
24,CC(C)C(=O)Nc1ccc([N+](=O)[O-])c(C(F)(F)F)c1 [Flutamide],92%

# 4 entries from above, bar-delimited:
row | Compound | biofilm formation
21 | COCC(=O)Nc1c(I)c(C(=O)NCC(O)CO)c(I)c(C(=O)N(C)CC(O)CO)c1I (configuration not stated) [Iopromide] | 82%
22 | CC1COc2c(N3CCN(C)CC3)c(F)cc3c(=O)c(C(=O)O)cn1c23 (configuration not stated) [Ofloxacin] | 13%
23 | Cn1cnc([N+](=O)[O-])c1Sc1ncnc2[nH]cnc12 [Azathioprine] | 52%
24 | CC(C)C(=O)Nc1ccc([N+](=O)[O-])c(C(F)(F)F)c1 [Flutamide] | 92%

# (next part)

row,Compound,biofilm formation
1,CC(C)CN(C[C@@H](O)[C@H](Cc1ccccc1)NC(=O)O[C@H]1CO[C@H]2OCC[C@H]21)S(=O)(=O)c1ccc(N)cc1 [Darunavir],85%
2,O=C1c2cccc3c2[C@H](CCC3)CN1[C@@H]1CN2CCC1CC2 [Palonosetron hydrochloride],61%
3,NCC[C@H](O)C(=O)N[C@@H]1C[C@H](N)[C@@H](O[C@H]2O[C@H](CN)[C@@H](O)[C@H](O)[C@H]2O)[C@H](O)[C@H]1O[C@H]1O[C@H](CO)[C@@H](O)[C@H](N)[C@H]1O [Amikacin hydrate],17%
4,O=c1[nH]cnc2c1ncn2[C@H]1CC[C@@H](CO)O1 [Didanosine],92%
5,CN(C/C=C/C#CC(C)(C)C)Cc1cccc2ccccc12 [Terbinafine],68%
6,Fc1ccc([C@@H]2CCNC[C@H]2COc2ccc3c(c2)OCO3)cc1 [Paroxetine Hydrochloride],93%
7,Nc1nc(O)c2ncn(CCC(CO)CO)c2n1 [Penciclovir],87%
8,C[C@H]1COc2c(N3CCN(C)CC3)c(F)cc3c(=O)c(C(=O)O)cn1c23 [Levofloxacin],15%
9,CN(C)CCCN1c2ccccc2CCc2ccccc21 [Imipramine hydrochloride],96%
10,NC(CO)C(=O)NNCc1ccc(O)c(O)c1O (configuration not stated) [Benserazide hydrochloride],46%
11,NCCC[C@H](N)CC(=O)N[C@H]1CNC(=O)[C@H]([C@H]2C[C@H](O)NC(N)=N2)NC(=O)/C(=C/NC(N)=O)NC(=O)[C@H](CO)NC(=O)[C@H](CO)NC1=O [Viomycin sulfate],89%
12,CN1CCC(OC(c2ccccc2)c2ccccc2)CC1 [Diphenylpyraline hydrochloride],68%
13,O=C(Oc1cccc2cccnc12)c1ccccc1 [Benzoxiquine],73%
14,Clc1ccc(Nc2nnc(Cc3ccncc3)c3ccccc23)cc1 [Vatalanib],102%
15,O=C(O)CCNC(=O)c1ccc(/N=N/c2ccc(O)c(C(=O)O)c2)cc1 [Balsalazide Sodium],87%
16,Cc1cccc(Nc2ccccc2C(=O)O)c1C [Mefenamic acid],94%
17,CCC(C)n1ncn(-c2ccc(N3CCN(c4ccc(OCC5COC(Cn6cncn6)(c6ccc(Cl)cc6Cl)O5)cc4)CC3)cc2)c1=O (configuration not stated) [Itraconazole],96%
18,C[n+]1ccccc1/C=N/O [Pralidoxime chloride],62%
19,O=C1OC(CN2CCOCC2)CN1/N=C/c1ccc([N+](=O)[O-])o1 (configuration not stated) [Furaltadone hydrochloride],63%
20,CNCCCN1c2ccccc2CCc2ccccc21 [Desipramine hydrochloride],49%
21,O=C1CCC(N2C(=O)c3ccccc3C2=O)C(=O)N1 (configuration not stated) [Thalidomide],69%
22,O=C1NCCN1CCN1CCC(c2cn(-c3ccc(F)cc3)c3ccc(Cl)cc23)CC1 [Sertindole],92%
23,CCN(CC)CCNC(=O)COc1ccc(OC)cc1 [Mefexamide hydrochloride],75%
24,Cc1nc2n(c(=O)c1CCN1CCC(c3noc4cc(F)ccc34)CC1)CCCC2O (configuration not stated) [Paliperidone],53%

row,Compound,biofilm formation
1,Clc1ccc(C(Cn2ccnc2)OCc2csc3c(Cl)cccc23)c(Cl)c1 (configuration not stated) [Sertaconazole nitrate],35%
2,CC(=O)OCC1=C(C(=O)O)N2C(=O)[C@@H](NC(=O)Cc3cccs3)[C@H]2SC1 [Cephalothin sodium salt],59%
3,CC1(C)S[C@@H]2[C@H](NC(=O)Cc3ccccc3)C(=O)N2[C@H]1C(=O)O [Benzylpenicillin sodium],52%
4,CC1(C)S[C@@H]2[C@H](NC(=O)Cc3ccccc3)C(=O)N2[C@H]1C(=O)O [Benzathine benzylpenicillin],71%
5,CCCCc1nc(Cl)c(CO)n1Cc1ccc(-c2ccccc2-c2nnn[nH]2)cc1 [Losartan],79%
6,CCC(=O)OCC(=O)[C@@]1(OC(=O)CC)[C@@H](C)C[C@H]2[C@@H]3CCC4=CC(=O)C=C[C@]4(C)[C@@]3(Cl)[C@@H](O)C[C@@]21C [Beclomethasone dipropionate],65%
7,CCN(CC)Cc1cc(Nc2ccnc3cc(Cl)ccc23)ccc1O [Amodiaquin dihydrochloride dihydrate],66%
8,COc1ccccc1N1CCN(CCCNc2cc(=O)n(C)c(=O)n2C)CC1 [Urapidil hydrochloride],47%
9,COc1nc(N)nc2c1ncn2[C@@H]1O[C@H](CO)[C@@H](O)[C@@H]1O [Nelarabine],67%
10,Cn1c(=O)c2c(ncn2CCO)n(C)c1=O [Etofylline],67%
11,"CC(C)NCC(O)c1cc(O)cc(O)c1 (configuration not stated) [Metaproterenol sulfate, orciprenaline sulfate]",75%
12,O=C(O)CN(CCN(CC(=O)O)CC(=O)O)CCN(CC(=O)O)CC(=O)O [Pentetic acid],66%
13,C#CCN(C)CCCOc1ccc(Cl)cc1Cl [Clorgyline hydrochloride],62%
14,Cc1cnc(C(=O)NCCc2ccc(S(=O)(=O)NC(=O)NC3CCCCC3)cc2)cn1 [Glipizide],84%
15,O=C1[C@H](CC[C@H](O)c2ccc(F)cc2)[C@@H](c2ccc(O)cc2)N1c1ccc(F)cc1 [Ezetimibe],79%
16,CCC1NC(=O)c2cc(S(N)(=O)=O)c(Cl)cc2N1 (configuration not stated) [Quinethazone],82%
17,"CCN(CC)CCOc1ccc(C(=C(Cl)c2ccccc2)c2ccccc2)cc1 [Clomiphene citrate (Z,E)]",64%
18,CN(C)[C@@H]1C(O)=C(C(=O)NCNCCCC[C@H](N)C(=O)O)C(=O)[C@@]2(O)C(O)=C3C(=O)c4c(O)cccc4[C@@](C)(O)[C@H]3C[C@@H]12 [Lymecycline],76%
19,CCCCNc1ccc(C(=O)OCCN(C)C)cc1 [Tetracaine hydrochloride],88%
20,CCCCCOC(=O)Nc1nc(=O)n([C@@H]2O[C@H](C)[C@@H](O)[C@H]2O)cc1F [Capecitabine],75%
21,CN1CCOC(c2ccccc2)c2ccccc2C1 (configuration not stated) [Nefopam hydrochloride],67%
22,CN1CCC(=C2c3ccccc3CCc3sccc32)CC1 [Pizotifen malate],67%
23,O=C1C(O)=C([C@H]2CC[C@H](c3ccc(Cl)cc3)CC2)C(=O)c2ccccc21 [Atovaquone],65%
24,"CC(C)NCC(O)c1ccc(O)c(O)c1 (single isomer, unassigned; (-)) [(-)-Isoproterenol hydrochloride]",67%
